Experimental data: PubChem BioAssay AID1159584 (Peter MacCallum Cancer Centre, 2016)
Shown is an unselected part of about 18,000 reagents tested. Reagent sequences are not shown. Not given: the amount of reagent, the time to read-out.

Screen: 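Genes whose loss is lethal only together with E-cadherin loss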 (primary screen)
Cells: human MCF10A breast epithelial cells, parental and CDH1-null
Knock-down reagent: siRNA against human genes
Measurement: 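Cell viability by CellTiter-Glo ATP luminescence, each line scaled to the mean of mock wells across plates, then CDH1-null over parental ratio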
Reading the numbers: CDH1-null / parental viability ratio: higher = CDH1-null cells survive relatively better than parental; CDH1-null viability vs mock: higher = more viable CDH1-null cells; parental viability vs mock: higher = more viable parental cells

no.	Gene	CDH1-null / parental viability ratio	CDH1-null viability vs mock (fraction of mock)	parental viability vs mock (fraction of mock)
1	BCAR1 (BCAR1 scaffold protein, Cas family member)	0.8	0.36	0.45
2	GPR34 (G protein-coupled receptor 34)	0.89	0.85	0.96
3	HIBADH (3-hydroxyisobutyrate dehydrogenase)	0.96	0.81	0.84
4	COMMD8 (COMM domain containing 8)	0.86	0.6	0.7
5	OAS1 (2'-5'-oligoadenylate synthetase 1)	1.17	0.82	0.7
6	BCL2A1 (BCL2 related protein A1)	1.06	1.04	0.98
7	HSPBAP1 (HSPB1 associated protein 1)	1	0.63	0.63
8	SRPK2 (SRSF protein kinase 2)	1.15	0.92	0.8
9	CHD8 (chromodomain helicase DNA binding protein 8)	1	0.86	0.86
10	TTI1 (TELO2 interacting protein 1)	1.18	0.84	0.71
11	CEBPD (CCAAT enhancer binding protein delta)	1.33	0.4	0.3
12	IER2 (immediate early response 2)	1.23	0.7	0.57
13	AQP1 (aquaporin 1 (Colton blood group))	0.98	0.57	0.58
14	NKX3-2 (NK3 homeobox 2)	1.13	0.86	0.76
15	PROC (protein C, inactivator of coagulation factors Va and VIIIa)	1.03	0.31	0.3
16	RPL6 (ribosomal protein L6)	1.38	0.4	0.29
17	KCTD21 (potassium channel tetramerization domain containing 21)	0.96	0.9	0.94

Reformatted: entries from further up
| Gene | CDH1-null / parental viability ratio | CDH1-null viability vs mock (fraction of mock) | parental viability vs mock (fraction of mock) |
| --- | --- | --- | --- |
| BCL2A1 (BCL2 related protein A1) | 1.06 | 1.04 | 0.98 |
| HSPBAP1 (HSPB1 associated protein 1) | 1 | 0.63 | 0.63 |
| SRPK2 (SRSF protein kinase 2) | 1.15 | 0.92 | 0.8 |
| CHD8 (chromodomain helicase DNA binding protein 8) | 1 | 0.86 | 0.86 |

Additional reagents follow:
no.	Gene	CDH1-null / parental viability ratio	CDH1-null viability vs mock (fraction of mock)	parental viability vs mock (fraction of mock)
18	PCDHA3 (protocadherin alpha 3)	1.04	0.94	0.9
19	ZC3H12B (zinc finger CCCH-type containing 12B)	1.26	0.68	0.54
20	REG3A (regenerating family member 3 alpha)	1	0.6	0.6
21	ALPG (alkaline phosphatase, germ cell)	1.26	0.88	0.7
22	NBPF1 (NBPF member 1)	1.27	0.84	0.66
23	ADAM22 (ADAM metallopeptidase domain 22)	1.11	0.89	0.8
24	RTP4 (receptor transporter protein 4)	0.82	0.54	0.66
25	AJM1 (apical junction component 1 homolog)	1.18	0.8	0.68
26	LGALS3BP (galectin 3 binding protein)	1.28	1.13	0.88
27	ZNF579 (zinc finger protein 579)	0.97	0.84	0.87
28	PWWP2B (PWWP domain containing 2B)	1.09	0.87	0.8
